Assay [1] has as its target T1, HRPK-1 (C. elegans (endogenous in mixed stage animals)) (UniProt P91277).
T1 sequence: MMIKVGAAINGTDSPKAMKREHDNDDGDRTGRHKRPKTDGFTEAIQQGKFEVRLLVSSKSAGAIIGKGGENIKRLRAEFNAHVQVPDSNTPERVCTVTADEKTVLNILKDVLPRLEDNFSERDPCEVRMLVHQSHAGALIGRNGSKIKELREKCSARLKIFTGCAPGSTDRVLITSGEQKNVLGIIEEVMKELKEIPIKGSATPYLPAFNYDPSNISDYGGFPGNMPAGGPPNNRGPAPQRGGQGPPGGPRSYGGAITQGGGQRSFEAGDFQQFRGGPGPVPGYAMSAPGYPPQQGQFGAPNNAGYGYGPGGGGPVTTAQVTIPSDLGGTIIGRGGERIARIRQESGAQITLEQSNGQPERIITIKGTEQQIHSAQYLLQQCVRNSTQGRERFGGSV
In words: co-IP; HRPK-1 IP as a1, lysates incubated with RNAse A (20 ug/ml) prior to and during the IP; Western blot for ALG-1.

Amino acid sequences for entries named in this document (tags omitted).
UniProt G5EES3: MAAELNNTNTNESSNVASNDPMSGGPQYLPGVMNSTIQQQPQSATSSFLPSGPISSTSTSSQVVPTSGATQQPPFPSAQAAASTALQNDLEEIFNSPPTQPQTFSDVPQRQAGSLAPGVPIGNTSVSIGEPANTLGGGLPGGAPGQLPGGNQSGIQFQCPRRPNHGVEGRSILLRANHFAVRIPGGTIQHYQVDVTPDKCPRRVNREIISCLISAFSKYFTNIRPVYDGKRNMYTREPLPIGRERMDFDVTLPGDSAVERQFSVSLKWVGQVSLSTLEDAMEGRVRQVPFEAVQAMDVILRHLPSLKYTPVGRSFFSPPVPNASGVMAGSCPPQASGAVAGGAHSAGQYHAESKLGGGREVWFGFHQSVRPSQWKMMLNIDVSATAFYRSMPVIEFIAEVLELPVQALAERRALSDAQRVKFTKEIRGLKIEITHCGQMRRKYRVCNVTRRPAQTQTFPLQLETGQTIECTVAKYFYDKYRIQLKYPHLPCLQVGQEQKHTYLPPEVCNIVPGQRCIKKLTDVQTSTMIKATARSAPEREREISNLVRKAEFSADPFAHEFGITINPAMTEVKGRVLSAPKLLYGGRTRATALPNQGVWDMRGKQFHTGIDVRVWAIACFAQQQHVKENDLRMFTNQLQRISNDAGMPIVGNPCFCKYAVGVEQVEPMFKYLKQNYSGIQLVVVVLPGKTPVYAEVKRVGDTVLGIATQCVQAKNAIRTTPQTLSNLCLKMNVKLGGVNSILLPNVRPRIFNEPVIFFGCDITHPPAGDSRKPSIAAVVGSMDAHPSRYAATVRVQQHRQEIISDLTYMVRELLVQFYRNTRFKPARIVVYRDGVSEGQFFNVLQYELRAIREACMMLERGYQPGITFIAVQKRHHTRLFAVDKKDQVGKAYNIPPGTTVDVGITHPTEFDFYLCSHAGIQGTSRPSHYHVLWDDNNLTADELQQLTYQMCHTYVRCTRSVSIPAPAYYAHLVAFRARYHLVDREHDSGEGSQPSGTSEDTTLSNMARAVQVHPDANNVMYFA

Assay [2] concerns the target ALG-1 (C. elegans (endogenous in mixed stage animals)) (UniProt G5EES3). The assay can be described thus: co-IP; ALG-1 IP from worm extract, Protein A Dynabeads; Western blot; wild type and hrpk-1 mutant animals for AIN-1. A general note: In western blotting, separated proteins are transferred to a membrane and probed.

No constants are given. Whether binding was seen depends on the method and setting. Binding seen in cells or lysates may run through a third protein. Some results given as binding are weak or reduced against the parent protein; the word gives no strength. For some assays here: Sequences can lack the tags named with a protein.

Regarding ALG-1 (from UniProt G5EES3 1-1023), the binding result in assay [1] is on record as “binds”.

B1: HRP-1 (protein, UniProt Q22037 1-346)
chain: MTDVEIKAENGSGDASLEPENLRKIFVGGLTSNTTDDLMREFYSQFGEITDIIVMRDPTTKRSRGFGFVTFSGKTEVDAAMKQRPHIIDGKTVDPKRAVPRDDKNRSESNVSTKRLYVSGVREDHTEDMLTEYFTKYGTVTKSEIILDKATQKPRGFGFVTFDDHDSVDQCVLQKSHMVNGHRCDVRKGLSKDEMSKAQMNRDRETRGGRSRDGQRGGYNGGGGGGGGWGGPAQRGGPGAYGGPGGGGQGGYGGDYGGGWGQQGGGGQGGWGGPQQQQGGGGWGQQGGGGQGGWGGPQQQQQGGWGGPQQGGGGGGWGGQGQQQGGWGGQSGAQQWAHAQGGNRNY
As for B1, the binding entry in assay [2] is recorded as “no binding”.

The record behind these values is PMC6795461.
